In publication PMC11852966:

Target: T1, GBP5-HA (UniProt Q96PP8)
T1 sequence: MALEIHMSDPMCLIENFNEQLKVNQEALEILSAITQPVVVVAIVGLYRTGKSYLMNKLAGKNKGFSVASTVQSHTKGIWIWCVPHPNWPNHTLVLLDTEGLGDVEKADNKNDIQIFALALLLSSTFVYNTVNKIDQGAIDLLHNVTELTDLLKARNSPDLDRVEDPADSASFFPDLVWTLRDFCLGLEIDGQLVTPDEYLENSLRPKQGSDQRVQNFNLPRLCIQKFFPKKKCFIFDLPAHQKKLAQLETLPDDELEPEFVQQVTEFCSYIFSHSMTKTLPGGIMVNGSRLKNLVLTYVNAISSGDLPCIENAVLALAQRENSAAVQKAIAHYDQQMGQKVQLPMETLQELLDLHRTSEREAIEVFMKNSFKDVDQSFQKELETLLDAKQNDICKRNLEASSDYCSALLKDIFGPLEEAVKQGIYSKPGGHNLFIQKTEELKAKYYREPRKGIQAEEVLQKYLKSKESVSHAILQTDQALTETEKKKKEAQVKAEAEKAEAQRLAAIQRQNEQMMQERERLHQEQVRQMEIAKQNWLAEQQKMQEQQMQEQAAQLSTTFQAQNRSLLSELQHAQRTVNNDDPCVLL
Assay: affinity purification with mass spectrometry; HEK293T cells transfected with GBP5-HA for 48 hours; co-IP with anti-HA antibody and protein G agarose; eluate analysed by MS; compared with empty vector VR1012

binding: binds
B1: KRT9 (endogenous, HEK293T) (protein, UniProt P35527 1-623)
chain: MSCRQFSSSYLSRSGGGGGGGLGSGGSIRSSYSRFSSSGGGGGGGRFSSSSGYGGGSSRVCGRGGGGSFGYSYGGGSGGGFSASSLGGGFGGGSRGFGGASGGGYSSSGGFGGGFGGGSGGGFGGGYGSGFGGFGGFGGGAGGGDGGILTANEKSTMQELNSRLASYLDKVQALEEANNDLENKIQDWYDKKGPAAIQKNYSPYYNTIDDLKDQIVDLTVGNNKTLLDIDNTRMTLDDFRIKFEMEQNLRQGVDADINGLRQVLDNLTMEKSDLEMQYETLQEELMALKKNHKEEMSQLTGQNSGDVNVEINVAPGKDLTKTLNDMRQEYEQLIAKNRKDIENQYETQITQIEHEVSSSGQEVQSSAKEVTQLRHGVQELEIELQSQLSKKAALEKSLEDTKNRYCGQLQMIQEQISNLEAQITDVRQEIECQNQEYSLLLSIKMRLEKEIETYHNLLEGGQEDFESSGAGKIGLGGRGGSGGSYGRGSRGGSGGSYGGGGSGGGYGGGSGSRGGSGGSYGGGSGSGGGSGGGYGGGSGGGHSGGSGGGHSGGSGGNYGGGSGSGGGSGGGYGGGSGSRGGSGGSHGGGSGFGGESGGSYGGGEEASGSGGGYGGGSGKSSHS

These are yes or no findings as the source states them, for the method shown. Binding seen in cells or lysates may run through a third protein. These calls come from enrichment with a bait or labelling near it, and not all partners need be listed. Where a sequence is shown, tags or fusion partners need not be part of it.
